# Primary screen of a compound library

Chains of the proteins cited; added tags and fusions are not shown. Residues count along the entry.
UniProt Q8IDJ8, 1-583: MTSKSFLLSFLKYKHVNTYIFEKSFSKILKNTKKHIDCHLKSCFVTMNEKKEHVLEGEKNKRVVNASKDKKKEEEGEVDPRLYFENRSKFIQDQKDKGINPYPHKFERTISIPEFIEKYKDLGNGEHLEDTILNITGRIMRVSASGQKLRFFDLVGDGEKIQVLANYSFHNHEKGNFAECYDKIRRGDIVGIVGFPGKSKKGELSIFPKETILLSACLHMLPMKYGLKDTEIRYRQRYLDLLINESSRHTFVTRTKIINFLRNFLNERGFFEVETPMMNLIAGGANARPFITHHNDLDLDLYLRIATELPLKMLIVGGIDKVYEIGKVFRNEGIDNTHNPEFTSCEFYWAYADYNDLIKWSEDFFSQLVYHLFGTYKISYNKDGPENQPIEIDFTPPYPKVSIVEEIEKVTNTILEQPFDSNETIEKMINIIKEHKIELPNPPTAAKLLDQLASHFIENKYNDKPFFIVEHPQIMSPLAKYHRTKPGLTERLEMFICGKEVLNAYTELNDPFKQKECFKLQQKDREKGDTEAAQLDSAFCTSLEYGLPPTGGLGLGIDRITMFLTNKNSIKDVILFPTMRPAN
UniProt I6X8D2, whole entry: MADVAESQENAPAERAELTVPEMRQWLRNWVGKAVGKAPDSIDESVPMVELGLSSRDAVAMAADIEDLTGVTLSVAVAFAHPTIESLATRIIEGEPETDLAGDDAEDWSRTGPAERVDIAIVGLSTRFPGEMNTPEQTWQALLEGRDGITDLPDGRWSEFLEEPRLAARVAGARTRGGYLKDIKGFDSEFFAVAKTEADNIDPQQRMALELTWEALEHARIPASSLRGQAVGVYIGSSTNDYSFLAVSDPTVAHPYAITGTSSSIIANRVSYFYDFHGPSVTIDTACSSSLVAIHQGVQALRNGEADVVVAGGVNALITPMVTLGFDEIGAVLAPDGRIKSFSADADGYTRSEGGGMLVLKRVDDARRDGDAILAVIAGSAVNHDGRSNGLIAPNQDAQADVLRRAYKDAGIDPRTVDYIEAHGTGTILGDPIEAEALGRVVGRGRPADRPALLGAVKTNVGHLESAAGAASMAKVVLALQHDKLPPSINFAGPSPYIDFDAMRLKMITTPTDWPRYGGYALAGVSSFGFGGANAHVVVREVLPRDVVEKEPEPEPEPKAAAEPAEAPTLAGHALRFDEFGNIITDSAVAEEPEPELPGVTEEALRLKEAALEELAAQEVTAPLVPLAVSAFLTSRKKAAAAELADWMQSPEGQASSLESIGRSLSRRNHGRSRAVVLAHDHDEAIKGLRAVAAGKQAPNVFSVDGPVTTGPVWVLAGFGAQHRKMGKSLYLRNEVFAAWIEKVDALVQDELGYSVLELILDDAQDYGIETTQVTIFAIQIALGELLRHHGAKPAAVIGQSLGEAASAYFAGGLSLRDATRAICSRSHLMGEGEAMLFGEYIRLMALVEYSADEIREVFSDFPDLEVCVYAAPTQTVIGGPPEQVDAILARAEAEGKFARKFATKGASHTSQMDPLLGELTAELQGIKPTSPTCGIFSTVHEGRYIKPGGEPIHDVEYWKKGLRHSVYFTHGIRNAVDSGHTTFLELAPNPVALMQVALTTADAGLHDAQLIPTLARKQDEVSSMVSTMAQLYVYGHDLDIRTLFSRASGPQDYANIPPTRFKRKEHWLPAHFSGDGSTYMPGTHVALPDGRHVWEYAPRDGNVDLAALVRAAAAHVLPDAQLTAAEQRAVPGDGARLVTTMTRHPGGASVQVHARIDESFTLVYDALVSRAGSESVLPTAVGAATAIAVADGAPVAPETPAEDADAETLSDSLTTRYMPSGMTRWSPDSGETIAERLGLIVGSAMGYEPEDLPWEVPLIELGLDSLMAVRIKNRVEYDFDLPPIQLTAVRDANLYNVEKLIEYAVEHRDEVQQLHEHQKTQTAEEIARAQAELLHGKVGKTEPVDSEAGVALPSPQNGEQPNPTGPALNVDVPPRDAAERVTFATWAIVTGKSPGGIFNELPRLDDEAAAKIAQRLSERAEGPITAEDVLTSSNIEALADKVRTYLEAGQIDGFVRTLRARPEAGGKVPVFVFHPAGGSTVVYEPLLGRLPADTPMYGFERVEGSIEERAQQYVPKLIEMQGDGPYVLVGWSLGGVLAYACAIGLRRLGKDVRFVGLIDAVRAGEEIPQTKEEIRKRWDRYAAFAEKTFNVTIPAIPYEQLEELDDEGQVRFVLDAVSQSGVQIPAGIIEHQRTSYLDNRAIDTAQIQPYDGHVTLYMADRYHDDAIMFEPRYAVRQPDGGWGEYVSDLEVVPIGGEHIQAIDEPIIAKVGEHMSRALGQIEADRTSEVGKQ
UniProt P9WPC5, whole entry: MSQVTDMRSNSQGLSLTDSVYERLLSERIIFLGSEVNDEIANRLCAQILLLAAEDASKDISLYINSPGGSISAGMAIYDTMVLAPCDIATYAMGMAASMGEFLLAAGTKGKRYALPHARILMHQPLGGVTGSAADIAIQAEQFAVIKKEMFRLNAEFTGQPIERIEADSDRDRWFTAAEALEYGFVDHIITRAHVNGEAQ
UniProt P9WPC3, whole entry partner: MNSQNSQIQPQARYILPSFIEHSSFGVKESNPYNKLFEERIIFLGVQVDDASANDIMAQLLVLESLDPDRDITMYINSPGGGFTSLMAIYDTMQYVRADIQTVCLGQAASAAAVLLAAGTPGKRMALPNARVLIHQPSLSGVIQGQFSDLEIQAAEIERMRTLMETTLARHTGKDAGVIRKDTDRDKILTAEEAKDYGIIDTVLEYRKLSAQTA

The values are deposited in ChEMBL (CHEMBL3988442, “University of Dundee, Small-Polar-MMV Screening Library” (2021)).

PfKRS1: 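Lysine-tRNA ligase, Plasmodium falciparum 3D7 (UniProt Q8IDJ8). Enzyme assay of the cytosolic lysyl-tRNA synthetase in 384-well plates, read by luminescence. Concentration: 30 µM. Higher reads as stronger inhibition, judged from the few compounds that gave an IC50. About 69,000 compounds were tested under these conditions; 0.071% (about 49) showed 50% or more at least once.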
Pks13 thioesterase: 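Polyketide synthase Pks13, Mycobacterium tuberculosis (UniProt I6X8D2). Enzyme assay of the thioesterase domain of polyketide synthase 13; the read-out is not stated. Concentration: 30 µM. The record gives no direction; the compounds picked for IC50 retests had high values, so higher reads as stronger inhibition. Size under these conditions: about 67,000 compounds, about 300 of them at 50% or above in at least one test.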
ClpP1P2: 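ClpP1P2, Mycobacterium tuberculosis (UniProt P9WPC5 and UniProt P9WPC3). Protease assay of ClpP1P2, read by the AMC dye that it sets free. Compounds at 50 µM. Higher reads as stronger inhibition, judged from the few compounds that gave an IC50. Most other retested compounds had strongly negative values. Of about 69,000 compounds tested this way, about 10 (0.015%) reached 50% or more in at least one test.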

Results are given as percent effect.
The controls that fix the scale are not given in the record; negative values are as filed.
This is an unselected part of the compounds tested.
A dash means the value is not listed here; it may have been measured.

SMILES | PfKRS1 | Pks13 thioesterase | ClpP1P2
COc1ccccc1OC1CN(C(=O)C(c2ccc(F)cc2)N(C)C)C1 (stereo not given) | 5.299 | -28.74 | -2.154
Cc1ncc2c(n1)CN(Cc1nc(-c3ccsc3)oc1C)CC2 | 7.211 | -5.263 | -37.73
Cc1ccc(NC(=O)N2CCN(Cc3ccccn3)CC2)cc1Cl | -4.22 | -12 | -9.071
CCNC(=O)NCc1ccc(CN2CCCC(C)C2)cc1 (stereo not given) | 0.9117 | 10.49 | -8.385
Cc1cnc(N2CCCC3(COCCN(c4ccc(C)nn4)C3)C2)nc1 (stereo not given) | 1.228 | 2.79 | 1.596
Cc1cc(C(=O)NCCN2CCCCC2)nn1C(C)(C)C | 4.471 | -1.972 | -1.625
COc1ccc(C(=O)N2CCCC(n3nc(C)nc3C)C2)c(OC)c1 (stereo not given) | -1.315 | -11.12 | -7.805
CCc1ccccc1OCCN1C[C@@H](NS(C)(=O)=O)[C@H](C(C)C)C1 | 5.364 | -31.28 | -10.26
Cc1nc(CNCC2CNc3ccnn3C2)cs1 (stereo not given) | 6.03 | -42.33 | 4.319
CCCc1nnc(N2C[C@@H](C)[C@@](C)(O)C2)s1 | 0.8996 | -17.89 | -7.715
CCc1noc(C(C)N2CCN(CCc3ccncc3)CC2)n1 (stereo not given) | 3.981 | -27.14 | 4.774
CN(C)c1nc2c(c(N3CCC(O)CC3)n1)CN(CC1CCNC1)CC2 (stereo not given) | 3.515 | -8.912 | -4.806
CCOc1ncccc1Cn1cc(-c2cncnc2)nn1 | 1.193 | -32.64 | -8.478
CN(Cc1cnn(C)c1)Cc1nc(Cc2cccc(Cl)c2)no1 | 2.118 | -36.11 | -6.405
COCCCN1CCN(c2ncnc3nc(C)cc(C)c23)CC1 | 8.11 | -1.456 | -11.18
CC(C)(C)c1ccc(-n2ncc3c2CCCC3N)cc1 (stereo not given) | 7.238 | -13.14 | 4.935
Cc1cc(N2CCC(NC(=O)C3CC3)CC2)nc(-c2ccncc2)n1 | 1.955 | -9.959 | 2.913
CN(C)C(=O)[C@H]1C[C@H]2OCC[C@H]2N(CCOc2ccc(Cl)cc2)C1 | 3.714 | -2.674 | -3.313
CN(C)C(CNC(=O)c1ncoc1-c1ccccc1)c1ccsc1 (stereo not given) | 9.392 | -24.04 | 7.59
O=C(NC1CC2(CCN(CCO)CC2)c2ccccc21)c1ccsc1 (stereo not given) | 1.878 | -30.08 | -3.922
CCc1ncc(C(=O)N2CCOCC2CC(=O)c2ccccc2)s1 (stereo not given) | 4.758 | 1.389 | -3.883
Cc1nc(Nc2ccccn2)cc(C2CCCN2Cc2ncc[nH]2)n1 (stereo not given) | -0.184 | -6.097 | -1.308
COC1(CNS(=O)(=O)c2ccccc2Br)CCSC1 (stereo not given) | 0.7329 | 0.5122 | -2.211
CCCS(=O)(=O)N1C[C@@H](Oc2ncccc2F)[C@H]2OCCC[C@H]21 | 2.65 | -17.57 | -3.986
CC(C)(C)C(=O)NCc1cnn2ccccc12 | 0.4123 | -27.02 | 4.748
CC(O)(CCc1ccccc1)CNC(=O)c1ccsc1 (stereo not given) | -2.23 | -39.07 | -13.86
CS(=O)(=O)N1CCCC12CCCN(c1nccs1)C2 (stereo not given) | 2.283 | -37.59 | 5.849
CN1CC(=O)N(c2ccccc2)CC12CCN(CCO)C2 (stereo not given) | 3.544 | 10.95 | 9.344
COc1cc(CNc2cnn(CC(F)F)c2)ccc1O | 0.2532 | 16.98 | 20.18
Cc1nc(CC2CCN(C(=O)C(c3ccccc3C)N(C)C)CC2)no1 (stereo not given) | 5.603 | -0.2471 | -1.431
Cc1cc(C)nc(Nc2cccc(C3CCCN(CCO)C3)n2)n1 (stereo not given) | 1.779 | - | 4.915
CN(CC(=O)N1CCCC1)C(=O)c1ccccc1F | 1.964 | -20.54 | 4.944
CN(Cc1nnc2n1CCC2)C(=O)CCc1ccc2c(c1)OCO2 | 3.409 | 4.277 | -21.61
CN1CCN(Cc2noc(-c3cc(-c4ccccc4F)n[nH]3)n2)CC1 | 0.3119 | -14.53 | 9.634
Cc1cccc(CS(=O)(=O)CC(=O)NCCCOC(C)C)c1 | -4.672 | - | 13.01
CCN(CC)C(=O)c1ccn(COc2cc(C)cc(C)c2)n1 | 2.157 | -44.57 | 14.47
CC(Cn1cccn1)NCc1csc(COc2ccc(F)cc2)n1 (stereo not given) | 1.757 | 2.872 | -16.89
Cc1cccc(CNCc2ccc(NC(=O)NC(C)C)cc2)c1 | 0.5895 | -19.66 | -25.15
COC(=O)CCCC(=O)N(C)CC1Cc2ccccc2CN1C (stereo not given) | 4.654 | -37.52 | 5.359
O=C(CCC1CCN(C(=O)c2cnco2)CC1)NCc1cccc(Cl)c1 | 1.888 | -21.11 | -6.329
CN1CC(C(=O)N2CCC(Oc3ccccc3Cl)CC2)CC1=O (stereo not given) | 2.011 | -26.27 | -9.321
CCCn1nnnc1COC(=O)C1Cc2cc(Cl)ccc2O1 (stereo not given) | 8.653 | -6.396 | 19.73
CCC1=N[C@@]2(CC[C@@H]3CN(C(=O)NCc4ccccc4)C[C@@H]32)C(=O)N1C | -6.72 | 4.08 | -7.468
CCn1c(CN2CCCC2)nnc1C1CCN(S(=O)(=O)CC)CC1 | 6.989 | -15.79 | 6.803
COCCCN1CCN(CC2CCCO2)CC1 (stereo not given) | -2.333 | 4.435 | 13.85
CCC1CN(Cc2nnc(C(C)C)o2)CCC(=O)N1Cc1ccccc1 (stereo not given) | 5.645 | -2.879 | 0.2509
Cc1nonc1CN1CC[C@@](O)(C2CCC2)[C@H](C)C1 | 3.626 | 6.679 | -6.881
Cc1ccc(CC(=O)NCC(O)c2cccc(C(F)(F)F)c2)cn1 (stereo not given) | 1.502 | -16.51 | -1.966
O=C(CCCn1cncn1)NC1(c2ccc(Cl)cc2)CCC1 | 6.406 | -10.02 | -6.845
CN1CCC2(CC1)CN(Cc1ccc(C3CCCCO3)o1)CCCN2C (stereo not given) | 5.294 | -18.38 | 7.662
CCN(Cc1ccco1)C(=O)C1=NN(c2ccccc2)C(=O)CN1 | 7.494 | -22.86 | 5.613
O=C1C(NCc2nnc3n2CCCC3)CCN1c1ccccc1F (stereo not given) | 1.147 | -17.67 | -28.53

3 of the entries, repeated:

* CCN(Cc1ccco1)C(=O)C1=NN(c2ccccc2)C(=O)CN1 | PfKRS1: 7.494%; Pks13 thioesterase: -22.86%; ClpP1P2: 5.613%
* CCc1ccccc1OCCN1C[C@@H](NS(C)(=O)=O)[C@H](C(C)C)C1 | PfKRS1: 5.364%; Pks13 thioesterase: -31.28%; ClpP1P2: -10.26%
* CN1CC(=O)N(c2ccccc2)CC12CCN(CCO)C2 (stereo not given) | PfKRS1: 3.544%; Pks13 thioesterase: 10.95%; ClpP1P2: 9.344%